About 22,000 (6.9%) of roughly 320,000 compounds were called active. This list was built around the results that the source calls inconclusive (neither active nor inactive); the mix of calls is not that of the screen. Calls come from the whole dose curve; as a rule, active = well fitted inhibition curve with a large enough effect; inconclusive = small, poorly fitted or top-dose-only effect, or another doubt; inactive = no such curve, though single readings can be large or run the other way. Potencies beside an inconclusive call are fits to weak or partial responses and may not hold up.
Assay: Primary qHTS for delayed death inhibitors of the malarial parasite plastid, 96 hour incubation
Conditions: P. falciparum luciferase reporter growth; series mostly up to 28.7 µM
In short: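 Two-generation exposure (96 h) targets delayed-death phenotype. Reporter parasites carrying integrated firefly luciferase, in red cells at 2% hematocrit and 0.05% parasitemia final, kept at 37 C, 5% CO2; luminescence loss indicates inhibition.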
Potency is the fitted concentration of half-maximal effect.

Compound | Potency
COc1ccc(C(=O)NCC(=O)Nc2cccc(S(=O)(=O)NCc3ccco3)c2)cc1OC | inactive
CC(C)OCCCN1C(=O)c2ccccc2C1C(=O)NC1CCCCC1 (centres undefined) | inactive
Cc1ccc(CNC(=O)CC2Nc3c4ccccc4nc(=S)n3C2=O)cc1 (centres undefined) | inconclusive: 0.465 µM [inhibitor, partial curve, poor fit]
Cc1cc(-c2cc(C(=O)NC3CCCC3)on2)nc(NCC2CC2)n1 | inactive
CCn1c(SCC(=O)Nc2ccc(Br)cc2)nc2sc3c(c2c1=O)CCN(C)C3 | inconclusive: 0.185 µM [inhibitor, full curve]
NS(=O)(=O)c1ccc(CCNC(=O)COC(=O)Cc2ccc([N+](=O)[O-])cc2)cc1 | inconclusive: 10.4 µM [inhibitor, single point]
Cc1cc(C(=O)Nc2ccon2)c(C)o1 | inconclusive: 0.0828 µM [inhibitor, partial curve, poor fit]
Cc1cccn2c(=O)c(C=O)c(N3CCC4(CC3)OCCO4)nc12 | inactive
N#Cc1c(-c2ccc(F)cc2)cc(-c2ccccc2)nc1SCC(=O)NCC(=O)O | inactive
COc1ccc(/C=N/n2c(-c3ccc(C)cc3)n[nH]c2=S)cc1OC | inconclusive: 18.5 µM [inhibitor, single point]
O=c1[nH]c(C2CCN(S(=O)(=O)c3ccc(S(=O)(=O)NC4CC4)cc3)CC2)nc2c1nnn2Cc1ccccc1 | inactive
CN(CCc1cn[nH]c1)Cc1nc(Cc2ccccc2F)no1 | inconclusive: 11.7 µM [inhibitor, single point]
O=C(O)c1ccc(N[C@@H]2OC[C@@H](O)[C@@H](O)[C@@H]2O)cc1 | inactive
COc1cc(/C=N/Nc2ncnc3sc4c(c23)CCC4)ccc1O | inconclusive: 10.4 µM [inhibitor, single point]
O=C(NCCN1CCOCC1)c1cn(-c2ccccc2)nc1-c1cccs1 | inconclusive: 0.0029 µM [inhibitor, full curve, poor fit]
NNC(=O)c1[nH]c(-c2ccccc2)cc1-c1ccccc1 | inconclusive: 9.28 µM [inhibitor, single point]
Cc1ccc(CNC(=O)C2c3ccccc3C(=O)N3CCc4ccccc4C23)o1 (centres undefined) | inconclusive: 11.7 µM [inhibitor, single point]
O=C(/C=C/c1cccnc1)c1ccc(NC(=O)c2cccc(Br)c2)cc1 | inconclusive: 1.85 µM [inhibitor, partial curve, poor fit]
Cc1ccc2nc(NC(=O)CN(C)S(=O)(=O)c3ccc(Br)s3)sc2c1 | active: 9.28 µM

Single entries from the list.
Potency, `COc1cc(/C=N/Nc2ncnc3sc4c(c23)CCC4)ccc1O` reads inconclusive: 10.4 µM [inhibitor, single point]
Potency, `Cc1cccn2c(=O)c(C=O)c(N3CCC4(CC3)OCCO4)nc12` reads inactive

— PubChem BioAssay AID504834 (National Center for Advancing Translational Sciences (NCATS), 2011)
